# At least one structure is not confirmed: it was looked up by name or label, or the drawing left a doubt.
# Test system: UMSCC47 HPV(+) head and neck cancer cells
# Experiment: Exosome secretion by UMSCC47 cells
# Assay type: cell-based
# Settings: UMSCC47, in combination with IAA/DNP
# Experimental: All cell lines were grown at 37° C. in the atmosphere of 5% CO2 in air. Cultures were supplemented with fetal bovine serum (FBS) depleted of exosomes by ultracentrifugation at 100,000×g for 3 h. Cells were cultured in 150 cm^2 cell culture flasks using 25 ml of culture medium. Media used for cell cultures are described in Table 1. Seeding protocol was optimized for each cell type as recently described in Ludwig N., et al., (Exp Cell Res. 2019; 378(2):149-57). After seeding, cells were allowed to attach to the flask for 6 h, were then treated with indicated reagents and incubated for 48 or 72 h as indicated. […]
# Protein concentration: Protein concentrations were determined by using a BCA protein assay (Pierce Biotechnology, Rockford, Ill., USA) according to the manufacturer's instructions.
# Tunable resistive pulse sensing (TRPS): Size distribution and concentrations of the particles in isolated exosome fractions were analyzed using tunable-resistive pulse sensing (TRPS) by qNano (Izon) as described in Ludwig N, et al., Mol Cancer Res. 2018; 16(11):1798-808.
smiles,measurement,value
c1cc(-c2cnn3cc(-c4ccc(OCCN5CCCCC5)cc4)cnc23)ccn1 [dorsomorphin],effect on stimulation of exosome production by IAA/DNP,significantly augmented
